Maximum absorption wavelength data for 1 compound are collected here from patent US11618742B2, “Radical polymerization initiator, composition containing same, cured product of composition, production method for cured product, and compound” (ADEKA CORPORATION, priority 2018, dated 2023).

The data set is described as follows: Maximum absorption wavelength (absorption spectrum, spectrophotometer). In kind it is physicochemical. The settings on record: measurement solution in acetonitrile (low solubility in water). The text has this: Hereinafter, a method of measuring the maximum absorption wavelength presents no problem as long as it is capable of measuring the maximum absorption wavelength with good accuracy and, for example, the following method can be employed: […] (2) load the measurement aqueous solution to a quartz cell (optical path length=10 mm, thickness 1.25 mm), and measure the absorption spectrum using a spectrophotometer (e.g., visible-ultraviolet absorption spectrometer V-670 manufactured by JASCO Corporation). As the absorption spectrum of the measurement aqueous solution, a corrected absorption spectrum obtained by measuring the absorption spectrum of water alone in advance and deducting this absorption spectrum of water from the absorption spectrum of the measurement aqueous solution is used. […] (2) The thus obtained measurement aqueous solutions were each loaded to a quartz cell (optical path length—10 mm, thickness 1.25 mm), and an absorption spectrum was measured using a spectrophotometer (e.g., visible-ultraviolet absorption spectrometer V-670 manufactured by JASCO Corporation). […] Further, as the absorption spectrum, a corrected absorption spectrum obtained by measuring the absorption spectrum of the solvent itself in advance and deducting this absorption spectrum of the solvent from the absorption spectrum of the measurement solution was used.

In the case of `O=C(c1ccccc1)C1(O)CCCCC1` [Compound 102], the Maximum absorption wavelength was 325 nm.
